Reference: the supplement of paper PMC10849652
Some of the results follow.

Sequences of proteins named here, by UniProt entry; tags and fusion partners are left off. A change or cut given only in a name is not applied to a line headed by its entry.
UniProt Q7Z3T8: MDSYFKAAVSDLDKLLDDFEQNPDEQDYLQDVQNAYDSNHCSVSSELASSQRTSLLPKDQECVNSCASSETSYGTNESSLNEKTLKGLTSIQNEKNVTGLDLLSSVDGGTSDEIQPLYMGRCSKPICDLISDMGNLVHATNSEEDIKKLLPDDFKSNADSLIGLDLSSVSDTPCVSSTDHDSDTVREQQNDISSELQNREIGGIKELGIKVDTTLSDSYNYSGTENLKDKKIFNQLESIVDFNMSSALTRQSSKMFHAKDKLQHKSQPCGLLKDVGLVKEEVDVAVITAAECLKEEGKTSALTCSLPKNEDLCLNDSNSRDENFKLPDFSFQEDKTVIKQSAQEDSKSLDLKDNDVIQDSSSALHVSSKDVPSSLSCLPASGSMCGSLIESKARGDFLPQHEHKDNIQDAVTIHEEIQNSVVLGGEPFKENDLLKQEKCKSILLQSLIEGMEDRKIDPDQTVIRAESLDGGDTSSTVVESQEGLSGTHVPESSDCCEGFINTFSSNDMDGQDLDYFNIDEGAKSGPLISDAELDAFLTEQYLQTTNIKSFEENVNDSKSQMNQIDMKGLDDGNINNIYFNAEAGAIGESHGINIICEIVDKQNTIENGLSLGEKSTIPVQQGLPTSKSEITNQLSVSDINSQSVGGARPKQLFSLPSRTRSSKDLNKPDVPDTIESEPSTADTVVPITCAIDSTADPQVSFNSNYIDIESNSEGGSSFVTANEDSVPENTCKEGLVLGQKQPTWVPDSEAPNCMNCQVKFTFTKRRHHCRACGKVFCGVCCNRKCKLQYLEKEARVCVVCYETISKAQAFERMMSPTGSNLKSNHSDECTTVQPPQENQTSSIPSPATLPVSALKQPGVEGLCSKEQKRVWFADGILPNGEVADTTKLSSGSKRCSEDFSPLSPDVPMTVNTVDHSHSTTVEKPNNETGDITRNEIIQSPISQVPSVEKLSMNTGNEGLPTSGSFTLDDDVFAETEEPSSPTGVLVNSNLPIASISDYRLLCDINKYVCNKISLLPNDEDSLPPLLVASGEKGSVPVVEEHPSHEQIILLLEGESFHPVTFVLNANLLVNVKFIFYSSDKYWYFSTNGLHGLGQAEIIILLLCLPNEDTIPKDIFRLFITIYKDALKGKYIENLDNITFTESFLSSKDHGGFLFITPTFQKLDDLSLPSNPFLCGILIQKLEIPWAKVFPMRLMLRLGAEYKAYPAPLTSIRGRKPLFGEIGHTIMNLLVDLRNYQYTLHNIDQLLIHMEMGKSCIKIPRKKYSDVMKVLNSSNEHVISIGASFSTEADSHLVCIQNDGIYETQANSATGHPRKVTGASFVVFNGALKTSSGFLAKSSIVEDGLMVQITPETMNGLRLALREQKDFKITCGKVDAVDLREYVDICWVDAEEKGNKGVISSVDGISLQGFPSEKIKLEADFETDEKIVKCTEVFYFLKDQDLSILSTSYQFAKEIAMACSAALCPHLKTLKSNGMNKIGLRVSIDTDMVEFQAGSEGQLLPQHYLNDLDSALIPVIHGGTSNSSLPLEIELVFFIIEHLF
UniProt Q9UBH6: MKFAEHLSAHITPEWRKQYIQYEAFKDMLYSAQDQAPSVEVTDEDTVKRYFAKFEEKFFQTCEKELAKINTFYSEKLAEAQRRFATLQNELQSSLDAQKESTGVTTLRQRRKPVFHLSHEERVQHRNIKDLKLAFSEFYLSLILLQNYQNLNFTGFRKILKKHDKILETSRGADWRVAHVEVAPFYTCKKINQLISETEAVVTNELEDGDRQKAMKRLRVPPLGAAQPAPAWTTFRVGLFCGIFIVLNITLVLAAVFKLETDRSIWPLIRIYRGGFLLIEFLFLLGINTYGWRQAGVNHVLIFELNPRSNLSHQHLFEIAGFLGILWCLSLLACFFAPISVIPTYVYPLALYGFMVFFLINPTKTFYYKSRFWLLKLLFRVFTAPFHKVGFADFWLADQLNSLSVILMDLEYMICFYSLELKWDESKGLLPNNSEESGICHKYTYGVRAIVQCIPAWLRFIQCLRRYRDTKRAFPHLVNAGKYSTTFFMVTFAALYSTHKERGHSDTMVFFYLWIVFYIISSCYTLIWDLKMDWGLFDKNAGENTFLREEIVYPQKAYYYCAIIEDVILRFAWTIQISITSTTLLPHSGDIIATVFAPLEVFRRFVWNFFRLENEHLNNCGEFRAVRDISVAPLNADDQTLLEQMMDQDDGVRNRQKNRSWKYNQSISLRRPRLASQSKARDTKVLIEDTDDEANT
UniProt Q04917: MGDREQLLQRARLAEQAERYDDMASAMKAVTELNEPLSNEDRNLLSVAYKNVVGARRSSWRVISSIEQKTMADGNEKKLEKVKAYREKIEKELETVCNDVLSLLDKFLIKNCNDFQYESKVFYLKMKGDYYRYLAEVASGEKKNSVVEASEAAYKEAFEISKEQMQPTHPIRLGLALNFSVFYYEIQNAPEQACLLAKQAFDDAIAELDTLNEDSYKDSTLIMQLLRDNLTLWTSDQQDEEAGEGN
UniProt Q8NF64: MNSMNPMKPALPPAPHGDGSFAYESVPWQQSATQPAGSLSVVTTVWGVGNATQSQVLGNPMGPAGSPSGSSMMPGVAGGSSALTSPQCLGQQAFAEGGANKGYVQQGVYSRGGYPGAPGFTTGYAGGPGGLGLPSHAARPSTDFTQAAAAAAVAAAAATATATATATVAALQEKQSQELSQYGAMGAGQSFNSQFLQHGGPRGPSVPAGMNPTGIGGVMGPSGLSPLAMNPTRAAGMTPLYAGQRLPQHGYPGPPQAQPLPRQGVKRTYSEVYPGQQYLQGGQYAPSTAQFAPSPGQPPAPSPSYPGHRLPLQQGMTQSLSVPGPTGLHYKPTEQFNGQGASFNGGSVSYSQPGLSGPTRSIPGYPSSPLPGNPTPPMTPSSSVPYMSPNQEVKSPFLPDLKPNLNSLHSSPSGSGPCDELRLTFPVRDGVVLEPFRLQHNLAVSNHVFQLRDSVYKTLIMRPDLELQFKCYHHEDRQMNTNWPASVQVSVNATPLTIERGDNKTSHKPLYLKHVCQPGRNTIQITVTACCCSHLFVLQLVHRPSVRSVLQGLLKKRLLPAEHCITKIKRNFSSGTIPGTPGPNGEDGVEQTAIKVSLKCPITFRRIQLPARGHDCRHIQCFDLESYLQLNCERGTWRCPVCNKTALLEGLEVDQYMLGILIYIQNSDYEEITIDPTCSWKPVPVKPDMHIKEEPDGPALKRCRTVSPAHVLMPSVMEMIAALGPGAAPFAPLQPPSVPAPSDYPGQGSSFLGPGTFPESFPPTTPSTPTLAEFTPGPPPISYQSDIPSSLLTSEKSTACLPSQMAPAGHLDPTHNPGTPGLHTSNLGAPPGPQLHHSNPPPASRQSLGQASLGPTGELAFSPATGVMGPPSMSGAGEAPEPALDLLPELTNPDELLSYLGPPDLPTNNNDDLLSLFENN
UniProt Q8IY57: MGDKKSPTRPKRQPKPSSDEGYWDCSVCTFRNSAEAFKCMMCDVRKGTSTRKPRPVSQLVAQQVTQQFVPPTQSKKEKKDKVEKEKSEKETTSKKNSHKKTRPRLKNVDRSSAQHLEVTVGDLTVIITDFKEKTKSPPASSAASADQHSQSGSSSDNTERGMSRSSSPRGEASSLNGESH
UniProt Q9NYG2: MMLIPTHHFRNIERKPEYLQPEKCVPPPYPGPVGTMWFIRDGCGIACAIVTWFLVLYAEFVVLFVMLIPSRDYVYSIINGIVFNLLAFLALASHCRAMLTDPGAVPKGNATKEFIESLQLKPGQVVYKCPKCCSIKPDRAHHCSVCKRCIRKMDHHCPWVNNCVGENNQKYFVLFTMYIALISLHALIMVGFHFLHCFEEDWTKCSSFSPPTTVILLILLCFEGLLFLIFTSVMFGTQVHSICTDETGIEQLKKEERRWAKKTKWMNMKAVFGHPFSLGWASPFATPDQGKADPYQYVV
UniProt Q9NUD5: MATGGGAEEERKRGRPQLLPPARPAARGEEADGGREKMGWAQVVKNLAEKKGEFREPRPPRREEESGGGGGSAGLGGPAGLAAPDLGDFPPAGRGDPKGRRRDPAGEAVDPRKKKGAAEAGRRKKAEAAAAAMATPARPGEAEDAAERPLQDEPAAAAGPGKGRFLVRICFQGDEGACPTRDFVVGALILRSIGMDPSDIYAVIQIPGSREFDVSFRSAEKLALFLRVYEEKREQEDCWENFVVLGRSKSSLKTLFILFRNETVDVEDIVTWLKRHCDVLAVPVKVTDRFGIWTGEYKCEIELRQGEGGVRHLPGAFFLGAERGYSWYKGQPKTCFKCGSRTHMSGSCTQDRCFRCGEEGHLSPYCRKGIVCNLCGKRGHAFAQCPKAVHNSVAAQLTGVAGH
UniProt Q8IWT0: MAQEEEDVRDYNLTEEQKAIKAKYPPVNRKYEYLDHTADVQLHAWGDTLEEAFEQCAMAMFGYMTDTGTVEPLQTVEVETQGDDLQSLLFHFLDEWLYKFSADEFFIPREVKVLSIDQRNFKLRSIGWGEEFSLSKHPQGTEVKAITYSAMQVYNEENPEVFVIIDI
UniProt Q9Y5A9: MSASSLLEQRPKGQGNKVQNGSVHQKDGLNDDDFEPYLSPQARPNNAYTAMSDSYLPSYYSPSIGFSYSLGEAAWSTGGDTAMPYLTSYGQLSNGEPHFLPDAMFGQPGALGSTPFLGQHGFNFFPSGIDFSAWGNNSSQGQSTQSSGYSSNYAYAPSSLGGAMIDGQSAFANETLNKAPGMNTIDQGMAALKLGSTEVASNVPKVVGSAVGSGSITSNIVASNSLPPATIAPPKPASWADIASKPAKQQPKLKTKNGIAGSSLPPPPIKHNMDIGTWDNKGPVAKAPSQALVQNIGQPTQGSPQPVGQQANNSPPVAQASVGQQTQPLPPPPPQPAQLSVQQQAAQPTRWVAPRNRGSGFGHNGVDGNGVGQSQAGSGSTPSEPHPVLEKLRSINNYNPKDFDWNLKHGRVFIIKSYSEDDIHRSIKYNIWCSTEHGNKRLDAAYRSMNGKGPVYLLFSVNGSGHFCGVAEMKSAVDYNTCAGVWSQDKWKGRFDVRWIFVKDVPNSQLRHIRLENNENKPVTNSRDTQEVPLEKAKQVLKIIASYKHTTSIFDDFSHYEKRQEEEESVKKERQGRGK
UniProt A8MPS7: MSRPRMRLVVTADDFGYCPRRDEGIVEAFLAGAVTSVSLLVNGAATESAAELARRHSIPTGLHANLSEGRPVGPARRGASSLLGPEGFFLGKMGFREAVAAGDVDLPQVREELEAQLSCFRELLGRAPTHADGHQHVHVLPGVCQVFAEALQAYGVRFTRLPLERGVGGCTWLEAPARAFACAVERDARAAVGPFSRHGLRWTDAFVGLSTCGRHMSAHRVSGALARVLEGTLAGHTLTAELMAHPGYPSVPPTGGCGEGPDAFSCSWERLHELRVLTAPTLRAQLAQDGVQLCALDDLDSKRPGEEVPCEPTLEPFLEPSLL
UniProt Q96K21: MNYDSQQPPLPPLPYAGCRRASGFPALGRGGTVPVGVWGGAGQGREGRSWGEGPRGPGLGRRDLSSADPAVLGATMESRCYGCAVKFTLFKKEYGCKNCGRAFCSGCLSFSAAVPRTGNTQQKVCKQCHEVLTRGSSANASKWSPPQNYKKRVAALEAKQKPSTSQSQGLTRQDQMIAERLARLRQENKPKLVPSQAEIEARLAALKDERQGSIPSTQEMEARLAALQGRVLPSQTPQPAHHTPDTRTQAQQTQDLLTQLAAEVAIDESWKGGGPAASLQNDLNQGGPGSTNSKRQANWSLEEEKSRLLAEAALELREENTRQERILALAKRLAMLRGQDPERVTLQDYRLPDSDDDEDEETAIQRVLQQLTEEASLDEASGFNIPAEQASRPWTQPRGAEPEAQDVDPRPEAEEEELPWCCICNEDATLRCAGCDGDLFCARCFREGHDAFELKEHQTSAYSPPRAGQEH
UniProt P62258: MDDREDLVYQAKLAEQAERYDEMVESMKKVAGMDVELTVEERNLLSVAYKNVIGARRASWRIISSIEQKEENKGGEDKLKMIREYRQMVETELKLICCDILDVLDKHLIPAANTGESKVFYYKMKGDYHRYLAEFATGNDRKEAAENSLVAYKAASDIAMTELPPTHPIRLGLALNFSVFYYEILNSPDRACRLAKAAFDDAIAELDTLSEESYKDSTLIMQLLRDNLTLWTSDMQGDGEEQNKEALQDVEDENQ
UniProt Q8WU90: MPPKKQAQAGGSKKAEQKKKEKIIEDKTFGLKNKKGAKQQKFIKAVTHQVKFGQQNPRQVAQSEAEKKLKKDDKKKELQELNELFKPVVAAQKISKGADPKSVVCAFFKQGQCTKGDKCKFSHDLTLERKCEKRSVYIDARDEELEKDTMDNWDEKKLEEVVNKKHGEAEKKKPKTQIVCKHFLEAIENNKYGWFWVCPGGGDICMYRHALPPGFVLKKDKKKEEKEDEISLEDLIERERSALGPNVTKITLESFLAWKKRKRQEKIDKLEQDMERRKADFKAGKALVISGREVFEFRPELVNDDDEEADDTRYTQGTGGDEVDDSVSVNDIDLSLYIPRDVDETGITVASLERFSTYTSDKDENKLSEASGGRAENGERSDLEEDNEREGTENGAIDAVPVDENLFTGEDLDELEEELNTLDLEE

Experiments:
Experiment in all cases: log2 fold change, soluble protein after heating vs DMSO (PISA); higher = thermal stabilisation; K562 cells, 10 uM, 30 min; active = over 0.2 and 3.5 SD of the protein, either way, in both replicates (recomputed)
[1] = compound: CC1=C(C=C(C=C1)NC(=O)C2=CC(=CC=C2)C(C)(C)C#N)NC3=CC4=C(C=C3)N=CN(C4=O)C
Procedure, shortened: (§1)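 Aliquots of K562 cells (2×10^6 cells/mL) treated with 10 μM compound for 30 min were heated for 3 min over 48°C-58°C. After pooling and extraction in PBS with 0.5% NP-40 at 4°C, soluble protein from a 21,000xg, 90 min spin was quantified by TMTpro 16plex LC-MS/MS with channel sums equalised. Thermal stability is expressed against control samples, from duplicates, as a log2 fold change.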

[2] = compound: CC1=C(C=C(C=C1)NC(=O)C2=CC(=CC=C2)N(C)C)NC(=O)C3=CC=C(C=C3)O
Procedure, shortened: as §1

[3] = compound: CC1=CC=C(C=C1)SC2=C3C=C(SC3=CN=C2)C(=O)N
Procedure, shortened: as §1

[4] = compound: CC1=NC(=CC=C1)C2=C(N=C(N2)C(C)(C)C)C3=CC4=NC=CN=C4C=C3
Procedure, shortened: as §1

[5] = compound: CCCCN(Cc1ccc(C(=O)NO)cc1)C(=O)Nc1ccccc1 [Nexturastat A]
Procedure, shortened: as §1

[6] = compound: CCCS(=O)(=O)Nc1ccc(F)c(C(=O)c2c[nH]c3ncc(-c4ccc(Cl)cc4)cc23)c1F [vemurafenib]
Procedure, shortened: as §1

[7] = compound: CCCS(=O)(=O)Nc1ccc(F)c(C(=O)c2c[nH]c3ncc(Cl)cc23)c1F
Procedure, shortened: as §1

[8] = compound: CCCc1cc(C)[nH]c(=O)c1CNC(=O)c1cc(-c2ccnc(N3CCN(C)CC3)c2)cc2c1cnn2C(C)C
Procedure, shortened: as §1

[9] = compound: CCN(CC)Cc1ccc2cc(COC(=O)Nc3ccc(C(=O)NO)cc3)ccc2c1 [givinostat]
Procedure, shortened: as §1

[10] = compound: CCN(CCCOc1ccc2c(Nc3cc(CC(=O)Nc4cccc(F)c4)[nH]n3)ncnc2c1)CCOP(=O)(O)O [barasertib]
Procedure, shortened: as §1

[11] = compound: CC[C@@H]1C(=O)N(C)c2cnc(Nc3ccc(C(=O)NC4CCN(C)CC4)cc3OC)nc2N1C1CCCC1
Procedure, shortened: as §1

[12] = compound: CC[C@@H]1C(=O)N(C)c2cnc(Nc3ccc(C(=O)N[C@H]4CC[C@H](N5CCN(CC6CC6)CC5)CC4)cc3OC)nc2N1C(C)C [volasertib]
Procedure, shortened: as §1

[13] = compound: CC[C@H](C)N1C=C(C2=C(C=C(C=C21)C3=CN=C(C=C3)N4CCNCC4)C(=O)NCC5=C(C=C(NC5=O)C)C)C
Procedure, shortened: as §1

[14] = compound: CC[C@H](C)[C@@H](C(=O)N[C@@H]([C@@H](C)O)C(=O)N[C@@H](CC(C)C)C(=O)[C@]1(CO1)C)NC(=O)[C@H]([C@@H](C)CC)N(C)C(=O)C [epoxomicin]
Procedure, shortened: as §1

[15] = compound: CCn1c(C(=O)N(C2CC2)C2CC2)cc2c3c(ncn3C)c(Nc3cc(C)n(C)n3)nc21
Procedure, shortened: as §1

[16] = compound: CCn1cc(-c2ccnc3[nH]c(-c4cccc(CN(C)C)c4)cc23)c(-c2ccc(NC(=O)N(C)C)cc2)n1
Procedure, shortened: as §1

[17] = compound: CN(C)CC(=O)Nc1ccc2[nH]c(=O)c3ccccc3c2c1
Procedure, shortened: as §1

[18] = compound: CN(CCOC1=CC=C(C=C1)C[C@H]2C(=O)NC(=O)S2)C3=CC=CC=N3 (racemic) [rosiglitazone]
Procedure, shortened: as §1

[19] = compound: CN1C2=C(C3=C1C(=O)N(N=C3)CC4=CC(=CC=C4)N)SC(=C2)S(=O)C
Procedure, shortened: as §1

[20] = compound: CN1CCC(CNc2ccc3ncc(-c4cccc(OC(F)(F)F)c4)n3n2)CC1
Procedure, shortened: as §1

Measured: log2 fold change

ZFYVE16 (UniProt Q7Z3T8)
inactive: [1] 0.001 | [2] 0.024 | [3] 0.017 | [4] -0.015 | [5] -0.034 | [6] 0.036 | [7] -0.021 | [8] -0.001 | [9] -0.007 | [10] 0.033 | [11] -0.018 | [12] -0.031 | [13] 0.015 | [14] 0.025 | [15] -0.022 | [16] 0.012 | [17] -0.005 | [18] -0.005 | [19] -0.012 | [20] -0.081

XPR1 (UniProt Q9UBH6)
inactive: [1] 0.034 | [2] -0.011 | [3] -0.009 | [4] 0.015 | [5] -0.048 | [6] -0.03 | [7] -0.006 | [8] -0.013 | [9] -0.027 | [10] -0.023 | [11] 0.013 | [12] -0.025 | [13] 0.005 | [14] 0.022 | [15] 0.046 | [16] -0.028 | [17] 0 | [18] -0.004 | [19] -0.009 | [20] 0.053

YWHAH (UniProt Q04917)
inactive: [1] 0.021 | [2] 0 | [3] -0.021 | [4] 0.029 | [5] -0.026 | [6] 0.012 | [7] -0.004 | [8] -0.011 | [9] -0.05 | [10] 0.019 | [11] -0.054 | [12] -0.035 | [13] 0.029 | [14] 0.045 | [15] 0.007 | [16] -0.005 | [17] -0.048 | [18] 0.032 | [19] -0.079 | [20] 0.006

ZMIZ2 (UniProt Q8NF64)
inactive: [1] 0.022 | [2] -0.068 | [3] -0.031 | [4] -0.066 | [5] -0.127 | [6] -0.037 | [7] -0.02 | [8] -0.054 | [9] 0.07 | [10] 0.026 | [11] 0.029 | [12] -0.001 | [13] -0.295 | [14] 0.047 | [15] -0.03 | [16] 0.006 | [17] 0.018 | [18] -0.013 | [19] -0.03 | [20] -0.158

YAF2 isoform 5 (UniProt Q8IY57)
inactive: [1] 0.089 | [2] 0.065 | [3] -0.02 | [4] -0.102 | [5] 0.109 | [6] -0.13 | [7] 0.007 | [8] 0.188 | [9] 0 | [10] -0.147 | [11] 0.071 | [12] 0.012 | [13] 0.123 | [14] 0.084 | [15] -0.077 | [16] 0 | [17] -0.211 | [18] -0.091 | [19] -0.133 | [20] 0.125

ZDHHC3 isoform 2 (UniProt Q9NYG2)
inactive: [1] 0.019 | [2] 0 | [3] 0.051 | [4] 0.035 | [5] 0.004 | [6] 0.026 | [7] 0.009 | [8] -0.433 | [9] -0.015 | [10] 0.017 | [11] -0.159 | [12] -0.174 | [13] -0.018 | [14] 0.052 | [15] -0.035 | [16] -0.086 | [17] 0.096 | [18] -0.017 | [19] -0.055 | [20] -0.275

ZCCHC3 (UniProt Q9NUD5)
inactive: [1] -0.006 | [2] 0.101 | [3] -0.135 | [4] -0.054 | [5] 0.168 | [6] -0.136 | [7] -0.076 | [8] 0.041 | [9] -0.052 | [10] -0.053 | [11] 0.23 | [12] 0.252 | [13] 0.093 | [14] -0.202 | [15] 0.036 | [16] 0.118 | [17] -0.12 | [18] -0.077 | [19] 0.183 | [20] 0.192

ZBTB8OS (UniProt Q8IWT0)
inactive: [1] 0.073 | [2] 0.012 | [3] -0.044 | [4] 0.074 | [5] -0.056 | [6] -0.002 | [7] -0.003 | [8] -0.052 | [9] -0.025 | [10] 0.026 | [11] 0.033 | [12] 0.08 | [13] -0.008 | [14] 0.082 | [15] -0.045 | [16] -0.032 | [17] -0.009 | [18] 0.027 | [19] -0.001 | [20] 0.003

ZC3H14 (UniProt Q6PJT7)
inactive: [1] -0.041 | [2] 0.016 | [3] -0.035 | [4] -0.029 | [5] 0.115 | [6] -0.029 | [7] 0.025 | [8] 0.131 | [9] 0.073 | [10] -0.05 | [11] 0.012 | [12] -0.167 | [13] 0.012 | [14] -0.051 | [15] -0.084 | [16] 0.065 | [17] -0.008 | [18] -0.035 | [19] 0.011 | [20] 0.079

Reprinted from above (2 entries):
YAF2 isoform 5 (UniProt Q8IY57)
inactive: [1] 0.089 | [2] 0.065 | [3] -0.02 | [4] -0.102 | [5] 0.109 | [6] -0.13 | [7] 0.007 | [8] 0.188 | [9] 0 | [10] -0.147 | [11] 0.071 | [12] 0.012 | [13] 0.123 | [14] 0.084 | [15] -0.077 | [16] 0 | [17] -0.211 | [18] -0.091 | [19] -0.133 | [20] 0.125

ZDHHC3 isoform 2 (UniProt Q9NYG2)
inactive: [1] 0.019 | [2] 0 | [3] 0.051 | [4] 0.035 | [5] 0.004 | [6] 0.026 | [7] 0.009 | [8] -0.433 | [9] -0.015 | [10] 0.017 | [11] -0.159 | [12] -0.174 | [13] -0.018 | [14] 0.052 | [15] -0.035 | [16] -0.086 | [17] 0.096 | [18] -0.017 | [19] -0.055 | [20] -0.275

Remaining list, next part:

ZFYVE27 isoform 2 (UniProt Q5T4F4)
inactive: [1] 0.006 | [2] -0.009 | [3] -0.015 | [4] -0.012 | [5] 0.054 | [6] -0.075 | [7] 0.016 | [8] -0.004 | [9] -0.047 | [10] 0.006 | [11] -0.018 | [12] -0.084 | [13] -0.016 | [14] 0.028 | [15] -0.014 | [16] -0.034 | [17] -0.077 | [18] 0.012 | [19] -0.081 | [20] 0.043

YTHDF2 (UniProt Q9Y5A9)
inactive: [1] -0.012 | [2] 0.008 | [3] -0.031 | [4] 0.003 | [5] 0.056 | [6] 0.066 | [7] 0.018 | [8] -0.033 | [9] 0.026 | [10] -0.058 | [11] -0.047 | [12] -0.069 | [13] 0.07 | [14] 0.009 | [15] 0.009 | [16] -0.04 | [17] -0.012 | [18] 0.006 | [19] 0.025 | [20] -0.133

YDJC (UniProt A8MPS7)
inactive: [1] -0.002 | [2] -0.069 | [3] -0.016 | [4] 0.013 | [5] 0.058 | [6] -0.005 | [7] 0 | [8] -0.029 | [9] 0.003 | [10] -0.011 | [11] 0.033 | [12] 0.168 | [13] -0.014 | [14] 0.098 | [15] -0.176 | [16] -0.088 | [17] 0 | [18] 0.053 | [19] -0.063 | [20] -0.18

ZFYVE19 (UniProt Q96K21)
inactive: [1] -0.057 | [2] 0.053 | [3] -0.046 | [4] -0.013 | [5] -0.008 | [6] -0.036 | [7] -0.015 | [8] -0.003 | [9] 0.025 | [10] -0.056 | [11] -0.036 | [12] 0.045 | [13] -0.051 | [14] 0.057 | [15] -0.055 | [16] 0.05 | [17] 0.003 | [18] 0.023 | [19] -0.134 | [20] -0.029

YWHAE (UniProt P62258)
inactive: [1] 0.009 | [2] 0.026 | [3] -0.015 | [4] 0.016 | [5] -0.055 | [6] 0.002 | [7] -0.029 | [8] -0.04 | [9] -0.02 | [10] 0.003 | [11] 0.023 | [12] 0.037 | [13] -0.027 | [14] 0.018 | [15] 0.02 | [16] -0.011 | [17] -0.019 | [18] -0.008 | [19] -0.033 | [20] -0.043

ZC3H15 (UniProt Q8WU90)
inactive: [1] -0.021 | [2] -0.005 | [3] -0.008 | [4] -0.03 | [5] 0.179 | [6] -0.018 | [7] -0.029 | [8] -0.108 | [9] 0.009 | [10] -0.05 | [11] 0.071 | [12] 0.084 | [13] -0.014 | [14] -0.023 | [15] -0.002 | [16] 0.025 | [17] -0.05 | [18] -0.039 | [19] 0.023 | [20] 0.089
